Experimental data as given in patent publication US20220041641A1, “QUATERNARY AMMONIUM SALTS AS INHIBITORS OF TRIMETHYLAMINE PRODUCTION” (Senda Biosciences, Inc., priority 2018, published 2022).
At least one read-out could not be matched to a standard name with certainty.

system: P. mirabilis; assay: Inhibitor effect on bacterial growth (lag phase), P. mirabilis; assay type: cell-based, Proteus mirabilis; conditions: 10 μM compound, BHI, anaerobic, OD 600 nm for 24 hours

SMILES | Avg Lag Time (% compared to control) [P. mirabilis, Conc: 10 μM] [%]
CC(=O)OCC1OC(OCC[N+](C)(C)CCl)C(OC(C)=O)C(OC(C)=O)C1OC(C)=O.[I-] (stereo in doubt) [Compound 78, N-(chloromethyl)-N,N-dimethyl-2-(((2S,3S,4R,5S,6S)-3,4,5-triacetoxy-6-(acetoxymethyl)tetrahydro-2H-pyran-2-yl)oxy)ethan-1-aminium Iodide] | 109.4
CC(=O)OCC1OC(OCC[N+](C)(C)CF)C(OC(C)=O)C(OC(C)=O)C1OC(C)=O.[I-] (stereo in doubt) [Compound 79, N-(fluoromethyl)-N,N-dimethyl-2-(((2S,3S,4R,5S,6S)-3,4,5-triacetoxy-6-(acetoxymethyl)tetrahydro-2H-pyran-2-yl)oxy)ethan-1-aminium Iodide] | 103.3
CC(=O)OC[C@H]1O[C@@H](OCC[N+](C)(C)C2CC2)[C@H](OC(C)=O)[C@@H](OC(C)=O)[C@@H]1OC(C)=O.[I-] [Compound 80, N,N-dimethyl-N-(2-{[(3R,4S,5R,6R)-3,4,5-tris(acetyloxy)-6-[(acetyloxy)methyl]oxan-2-yl]oxy}ethyl)cyclopropanaminium Iodide] | 95.3
C[N+]1(CF)CCC[C@H]1CO.[I-] (stereo partly drawn) [Compound 109, (2S)-1-(fluoromethyl)-2-(hydroxymethyl)-1-methylpyrrolidin-1-ium iodide] | 99.40
C#CC[N+]1(C)CC[C@H](O)C1.[Br-] (stereo partly drawn) [Compound 112, (3S)-3-hydroxy-1-methyl-1-(prop-2-yn-1-yl)pyrrolidin-1-ium bromide] | 97.20
C[N+](C)(CCO)c1ccccc1 [Compound 145] | 107.10
C#CC[N+](C)(CF)CCO.[I-] (stereo not drawn) [Compound 153, N-(fluoromethyl)-N-(2-hydroxyethyl)-N-methylprop-2-yn-1-aminium Iodide] | 98.20
COCC[N+](C)(C)CF.[I-] [Compound 228, (fluoromethyl)(2-methoxyethyl)dimethylazanium Iodide] | 112.2
CSCC[N+](C)(C)CF.[I-] [Compound 229, (fluoromethyl)dimethyl[2-(methylsulfanyl)ethyl]azanium] | 112.4
C#CC[N+](C)(C)CC(=C)C(=O)O.[Br-] [Compound B52, 2-carboxy-N,N-dimethyl-N-(prop-2-yn-1-yl)prop-2-en-1-aminium Bromide] | 100.40
C#CC[N+](C)(C)CCO.[Br-] [Compound J60, N-(2-hydroxyethyl)-N,N-dimethylprop-2-yn-1-aminium Iodide] | 101.93
C#CCn1ccnc1 [Compound Z76, 1-(prop-2-yn-1-yl)-1H-imidazole] | 92.30
